From the supplement of paper PMC12889115
The list shows a part of the results. Values are raw readings; no control value is given beside them.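 In the initial screen, polymyxin B was used at a concentration that permeabilizes Salmonella's outer membrane but not its inner membrane. Maximum growth was set by DMSO wells with or without polymyxin B. Since plates varied, data were ranked per plate, and compounds giving the lowest OD600 advanced as hits.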

Test system: Salmonella enterica serovar Typhimurium SL1344
Test: bacterial growth OD600 after 18 h with compound and polymyxin B; higher = more bacterial growth (less inhibition)
Details: 50 µM, Mueller-Hinton broth

SMILES | bacterial growth OD600 (polymyxin B 1 µg/mL) | bacterial growth OD600 (polymyxin B 0.75 µg/mL)
CCN1CCN(CC(=O)NCc2cc(C)cc3c(C)c(C)[nH]c23)CC1 | 1.01 | 
CCOC(=O)C1(CCc2ccccc2)CCCN(Cc2cnc(SC)nc2)C1 (stereo unspecified) | -0.001 | 
Cc1cc(C)n(Cc2cc(C(=O)NCc3cccs3)n[nH]2)n1 | 0.932 | 
C=CCn1cc(CN2C[C@H]3OC(=O)N(Cc4ccccn4)[C@H]3C2)c(C)n1 |  | 0.822
COc1ccc([C@@H](C)NC(=O)CCC2(Cc3ccc(C)cc3)CCC(=O)N2)cc1 (stereo partly specified) |  | 0.769
COc1ccc(CN2C[C@@H]3C[C@@H](c4ccc(C)c(C)c4)N4CCC[C@@]34C2=O)cc1 |  | 0.79
COc1ccc(C(=O)NC2CC2)c(OC2CCN(Cc3ccc(C)s3)CC2)c1 | 0.787 | 
C=CCN(CC=C)C(=O)CC1(c2ccccc2OC)CC(=O)N(CCCOC)C1=O (stereo unspecified) |  | 0.967
COC(=O)c1ccc(CN2CCCCC2C(=O)Nc2ccc(-n3cnnn3)cc2)cc1 (stereo unspecified) | 1.03 | 
COc1cc(CN2CCC(n3nccc3NC(=O)c3ccccc3OC)CC2)ccc1F | 0.912 | 
COc1ccc(C(=O)NC2CC2)c(OC2CCN(Cc3ccccc3Cl)CC2)c1 |  | 0.634
CCN(Cc1ccccc1)C(=O)Cn1nnnc1CN1CCCC1 |  | 0.869
COCCn1cc(C(=O)NCC2(c3ccccc3)CCCC2)c(=O)c(C(=O)N(C)C2CCCCC2)c1 |  | 0.009
COc1ccc(N2CCN(C3CCCN(C(=O)CCn4ccnc4C)C3)CC2)cc1 (stereo unspecified) | 0.861 | 
COc1ccccc1OCc1cc(C(=O)N(C)CC2Cc3ccccc3O2)n[nH]1 (stereo unspecified) | 0.848 | 
CSCCCNC(=O)C1CCC(=O)N(CCCN2CCOCC2)C1 (stereo unspecified) | 0.799 | 

By substructure: the compounds so far containing a thiophene ring, fused or not (2)
SMILES | bacterial growth OD600 (polymyxin B 1 µg/mL) | bacterial growth OD600 (polymyxin B 0.75 µg/mL)
Cc1cc(C)n(Cc2cc(C(=O)NCc3cccs3)n[nH]2)n1 | 0.932 | 
COc1ccc(C(=O)NC2CC2)c(OC2CCN(Cc3ccc(C)s3)CC2)c1 | 0.787 | 

Additional entries.

SMILES | bacterial growth OD600 (polymyxin B 1 µg/mL) | bacterial growth OD600 (polymyxin B 0.75 µg/mL)
COc1cccc(OC)c1C(=O)N1CCCC(N2CCN(c3ccccc3F)CC2)C1 (stereo unspecified) |  | 0.781
COc1ccc(C(=O)NC2CC2)c(OC2CCN(CCCn3cccn3)CC2)c1 | 1 | 
Fc1ccccc1CC1CCN(Cc2nc(-c3cccs3)no2)CC1 | 0.711 | 
Cc1nc2ccccn2c1CN(C)C(=O)CC1(c2cccc(C(F)(F)F)c2)CC(=O)N(C2CC2)C1=O (stereo unspecified) |  | 0.611
O=C(CCC1CCCN(C(=O)CCN2CCCC2=O)C1)Nc1ccc(C(F)(F)F)cc1 (stereo unspecified) | 0.993 | 
CSc1ccccc1N1C(=O)CN(C(=O)c2ccccc2)CC1C (stereo unspecified) |  | 0.843
Cc1cnc(SCCN2CCOCC2)nc1C1CCCN(C(=O)Cc2ccc3c(c2)OCO3)C1 (stereo unspecified) |  | 0.987
O=C(Cn1cc(NC(=O)CCOc2ccccc2)cn1)NCCCn1nnc2ccccc21 |  | 0.825
CCC1CCCCN1C(=O)CC1(c2ccccc2OC)CC(=O)N(C)C1=O (stereo unspecified) |  | 0.844
COc1cccc(-c2noc(-c3ccc(NCCSC)nc3)n2)c1OC | 0.656 | 
Fc1ccccc1-n1cc(CNC2CCCc3c2cnn3-c2ccccn2)cn1 (stereo unspecified) |  | 0.813
COc1ccc(-c2ccccc2NC(=O)C2CCCN(C3CCOCC3)C2)cc1 (stereo unspecified) |  | 0.822
FC(F)(F)C(Nc1nc2nonc2nc1N1CCSCC1)c1ccccn1 (stereo unspecified) |  | 0.654
CCCc1cc(C(=O)N2CCc3c(cnc(C)c3CNS(=O)(=O)c3cccs3)C2)n(C)n1 |  | 0.787
Cc1ccccc1CC1(CO)CCCN(Cc2nc(-c3cccs3)oc2C)C1 (stereo unspecified) | 0.606 | 
